Measurements from “University of Dundee, Small-Polar-MMV Screening Library” (2021), ChEMBL document CHEMBL3988442.

Amino acid sequences for entries named in this document (tags omitted).
UniProt P9WFT3, whole entry: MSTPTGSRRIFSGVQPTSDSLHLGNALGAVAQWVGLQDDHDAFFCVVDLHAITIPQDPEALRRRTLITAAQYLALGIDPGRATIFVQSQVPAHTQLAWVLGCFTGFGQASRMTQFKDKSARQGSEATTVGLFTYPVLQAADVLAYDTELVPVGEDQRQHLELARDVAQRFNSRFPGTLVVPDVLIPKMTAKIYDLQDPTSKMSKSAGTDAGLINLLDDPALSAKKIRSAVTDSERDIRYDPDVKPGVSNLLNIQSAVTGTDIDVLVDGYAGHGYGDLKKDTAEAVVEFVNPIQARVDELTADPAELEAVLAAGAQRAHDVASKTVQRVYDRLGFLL

Leishmania in macrophages: 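Cell assay of Leishmania donovani living inside macrophages; the read-out is not stated. Compounds at 30 µM. Direction is inferred from retests: higher values go with stronger inhibition. Size under these conditions: about 69,000 compounds, about 1,000 of them at 50% or above in at least one test.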
MtTrpRS: 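Enzyme assay of tryptophanyl-tRNA synthetase; the read-out is not stated. Target: Tryptophan-tRNA ligase, Mycobacterium tuberculosis (UniProt P9WFT3). Tested at 10 µM. Higher most likely means stronger inhibition; the record gives no direction and few retests gave an IC50. About 65,000 compounds were tested under these conditions; 0.098% (about 64) showed 50% or more at least once.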
T. brucei: 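Whole-parasite assay of Trypanosoma brucei over 72 hours; the read-out is not stated. Compounds at 30 µM. Higher reads as stronger inhibition (inferred: compounds with an IC50 in retests scored well above the rest). Values scatter widely below zero; nearly all retest evidence comes from the higher of the two concentrations used. Of about 64,000 compounds tested this way, about 940 (1.5%) reached 50% or more in at least one test.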

The filed quantity is “Percent Effect” (%).
How 0% and 100% were set is not recorded. Most values in the screen are low, and negative values occur.
Compounds were drawn at random from those tested, without regard to their results.
Two or more numbers in one place are separate tests of the same structure; such repeats can differ widely.

Result for CCc1[nH]ncc1C(=O)N1CCCC(n2ccnc2C)C1 (configuration not stated) was Leishmania in macrophages: -16.18%; MtTrpRS: 0.2596%; T. brucei: -4.72%. Result for CN(C)C(=O)COCC1CN(Cc2ccoc2)Cc2nnn(C)c21 (configuration not stated) was Leishmania in macrophages: 0.3285%; MtTrpRS: -3.662%; T. brucei: 5.871%. With [H][C@@]12CCN(C[C@@H]1c1cc(-c3cccs3)nn1C)[C@@H](CNC(=O)NCC)C2 the screen gave Leishmania in macrophages: 20.45%; T. brucei: -8.647%. Cc1nccn1CCC1CCCCN1Cc1ccc(N(C)C)nc1 (configuration not stated) read Leishmania in macrophages: 30.39%; MtTrpRS: 0.3552%; T. brucei: -7.168%. With CCN(Cc1noc(C)n1)C(=O)C(c1ccc(C)cc1)N(C)C (configuration not stated) the screen gave Leishmania in macrophages: -9.577%; MtTrpRS: 0.09099%; T. brucei: -14.72%.

Result for COc1cc2c(cc1OC)S(=O)(=O)N(Cc1cc(C)on1)C2=O was Leishmania in macrophages: 5.55%; MtTrpRS: -1.445%; T. brucei: -17.07%. CCc1nc(COc2ccc(OCc3cnn(C)c3)cc2)no1 gave Leishmania in macrophages: 35.64%; MtTrpRS: -5.186%; T. brucei: 10.3%. With O=c1c2cc3c(cc2nnn1Cc1ccccc1Cl)OCCO3 the screen gave Leishmania in macrophages: 0.497%; MtTrpRS: -0.1273%; T. brucei: -16.31%. For COc1cccc(CN2CC[C@H](c3nnc(C)o3)C2)c1 the result was Leishmania in macrophages: 10.18%; MtTrpRS: 3.263%; T. brucei: -60.81%. COc1ccc(OCc2noc(CN(C)C3CCS(=O)(=O)C3)n2)cc1 (configuration not stated) gave Leishmania in macrophages: 17.47%; MtTrpRS: -1.891%; T. brucei: -41.42%.

With [H][C@@]12COC[C@]1([H])[C@@H](OCc1cccnc1)CN2C(=O)CNC(C)=O the screen gave Leishmania in macrophages: 6.617%; T. brucei: -20.31%. O=C(CCc1ccsc1)NC1CCN(c2cccc(F)c2)CC1 gave Leishmania in macrophages: -29.46%; MtTrpRS: 0%. With CCOCCn1nc(C)cc1C(=O)N1CCOCC(CO)C1 (configuration not stated) the screen gave Leishmania in macrophages: -3.727%; MtTrpRS: 0.6966%; T. brucei: -4.857%. Cc1csc(C(C#N)C(=O)Nc2ccccc2)n1 (configuration not stated) read Leishmania in macrophages: 30.03%; MtTrpRS: -15.61%; T. brucei: -53.71%. CC(C)c1nnc(NC(=O)C2CSCN2C(=O)C2CCC2)s1 (configuration not stated) gave Leishmania in macrophages: 13.74%; MtTrpRS: -4.152%; T. brucei: -4.82%.

For [H][C@]12CN(Cc3cccnc3)C[C@@]1([H])S(=O)(=O)CC[C@@H]2C(=O)NCC(C)C the result was Leishmania in macrophages: 11.01%; T. brucei: -34.17%. O=C(CSCC1CC1)N1CCCN(Cc2ccc(F)cc2)CC1 gave Leishmania in macrophages: -8.964%; MtTrpRS: -1.723%; T. brucei: -6.854%. Cn1cnc(NC(=O)C2CC(=O)N(c3cccc(F)c3)C2)n1 (configuration not stated) read Leishmania in macrophages: 15.67%; MtTrpRS: 7.161%; T. brucei: -12.82%. With COCCN1CCCC(Cc2ccc(N3CCOCC3)nn2)C1 (configuration not stated) the screen gave Leishmania in macrophages: 17.12% & 22.44%; MtTrpRS: 6.783%; T. brucei: -12.06%. [H][C@]12CCCN(S(=O)(=O)c3ccc(OC)c(F)c3)[C@@]1([H])CN(C(=O)C1CC1)C2 gave Leishmania in macrophages: -21.4%; T. brucei: -14.13%.

O=C(CCCc1ccccn1)N1CCC(n2cccc2)CC1 read Leishmania in macrophages: 10.15%; MtTrpRS: -1.458%; T. brucei: -26.11%. O=C(O)C(F)(F)F.[H][C@]12CCN(c3ncccn3)[C@@]1([H])C[C@@H](C(=O)Nc1nc(C)cs1)O2 gave Leishmania in macrophages: 17.52%; T. brucei: -16.01%. With CC(O)C(=O)N1CCN(c2ccccc2Cl)C(=O)C1 (configuration not stated) the screen gave Leishmania in macrophages: -23.07%; MtTrpRS: -1.586%; T. brucei: -41.94%. For CCOc1cccc2c1OCC(=O)N(c1ccc3c(c1)OCCO3)C2 the result was Leishmania in macrophages: -6.215%; MtTrpRS: -8.412%; T. brucei: -52.22%. CN(C)C(=O)N1CCN(c2ccc(Cl)nn2)C(=O)C1 gave Leishmania in macrophages: -5.41%; MtTrpRS: -4.408%.

COCCN1CCO[C@@H]2CN(C(=O)NCc3ccccc3)CC[C@@H]2C1 gave MtTrpRS: -2.379%. For Cc1nnc([C@H]2C[C@H]3OCC[C@H]3N(S(=O)(=O)CC(C)C)C2)o1 the result was MtTrpRS: -2.229%. O=C(NCCN1CCCCC1)c1cccc(Cl)c1Cl read Leishmania in macrophages: 14.25%; MtTrpRS: 1.484%; T. brucei: -1.634%.

The first 3 entries again:

{"smiles": "CCc1[nH]ncc1C(=O)N1CCCC(n2ccnc2C)C1", "stereo": "configuration not stated", "Leishmania in macrophages": -16.18, "MtTrpRS": 0.2596, "T. brucei": -4.72}
{"smiles": "CN(C)C(=O)COCC1CN(Cc2ccoc2)Cc2nnn(C)c21", "stereo": "configuration not stated", "Leishmania in macrophages": 0.3285, "MtTrpRS": -3.662, "T. brucei": 5.871}
{"smiles": "[H][C@@]12CCN(C[C@@H]1c1cc(-c3cccs3)nn1C)[C@@H](CNC(=O)NCC)C2", "Leishmania in macrophages": 20.45, "T. brucei": -8.647}